The supplement of paper PMC10849652
Some of the results follow.

Amino acid sequences for entries named in this document (tags omitted). A change or cut given only in a name is not applied to a line headed by its entry.
UniProt Q8N4S0: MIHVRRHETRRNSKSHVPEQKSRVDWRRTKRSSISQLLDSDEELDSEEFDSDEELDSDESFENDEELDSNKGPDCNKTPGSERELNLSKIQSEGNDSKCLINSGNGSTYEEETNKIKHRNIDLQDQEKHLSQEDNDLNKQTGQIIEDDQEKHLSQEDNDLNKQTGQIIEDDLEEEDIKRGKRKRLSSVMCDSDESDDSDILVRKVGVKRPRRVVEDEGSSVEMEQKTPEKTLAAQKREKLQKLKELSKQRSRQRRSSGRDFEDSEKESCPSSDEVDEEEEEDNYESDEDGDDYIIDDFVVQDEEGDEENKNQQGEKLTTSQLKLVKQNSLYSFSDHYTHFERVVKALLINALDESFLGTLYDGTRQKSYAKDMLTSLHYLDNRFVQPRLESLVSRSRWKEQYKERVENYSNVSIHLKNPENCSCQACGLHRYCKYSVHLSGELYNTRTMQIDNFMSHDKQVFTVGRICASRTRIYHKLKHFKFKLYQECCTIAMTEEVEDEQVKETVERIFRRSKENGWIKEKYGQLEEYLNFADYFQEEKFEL
UniProt Q8NHZ8, whole entry, looked up: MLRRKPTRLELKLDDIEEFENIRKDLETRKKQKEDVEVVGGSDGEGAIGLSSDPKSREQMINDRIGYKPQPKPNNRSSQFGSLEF
UniProt O60563, whole entry, looked up: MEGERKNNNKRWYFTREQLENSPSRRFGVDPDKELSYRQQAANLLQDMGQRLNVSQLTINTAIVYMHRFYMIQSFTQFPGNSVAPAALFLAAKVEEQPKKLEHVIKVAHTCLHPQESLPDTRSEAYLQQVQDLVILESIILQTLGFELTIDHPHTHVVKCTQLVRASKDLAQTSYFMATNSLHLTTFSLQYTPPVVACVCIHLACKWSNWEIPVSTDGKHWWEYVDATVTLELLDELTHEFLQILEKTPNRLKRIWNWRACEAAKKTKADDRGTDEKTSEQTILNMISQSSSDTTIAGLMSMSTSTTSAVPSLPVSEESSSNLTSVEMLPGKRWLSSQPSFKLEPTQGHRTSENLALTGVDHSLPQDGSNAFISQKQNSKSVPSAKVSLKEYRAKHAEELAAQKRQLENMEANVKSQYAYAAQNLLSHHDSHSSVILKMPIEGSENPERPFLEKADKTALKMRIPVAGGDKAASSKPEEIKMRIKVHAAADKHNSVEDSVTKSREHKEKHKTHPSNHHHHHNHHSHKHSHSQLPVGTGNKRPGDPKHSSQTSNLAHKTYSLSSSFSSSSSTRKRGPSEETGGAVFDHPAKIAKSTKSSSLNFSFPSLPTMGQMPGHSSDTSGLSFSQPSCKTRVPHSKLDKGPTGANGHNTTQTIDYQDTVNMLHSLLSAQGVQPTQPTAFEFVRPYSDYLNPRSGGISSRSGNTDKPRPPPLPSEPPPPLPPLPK
UniProt Q8IWY9: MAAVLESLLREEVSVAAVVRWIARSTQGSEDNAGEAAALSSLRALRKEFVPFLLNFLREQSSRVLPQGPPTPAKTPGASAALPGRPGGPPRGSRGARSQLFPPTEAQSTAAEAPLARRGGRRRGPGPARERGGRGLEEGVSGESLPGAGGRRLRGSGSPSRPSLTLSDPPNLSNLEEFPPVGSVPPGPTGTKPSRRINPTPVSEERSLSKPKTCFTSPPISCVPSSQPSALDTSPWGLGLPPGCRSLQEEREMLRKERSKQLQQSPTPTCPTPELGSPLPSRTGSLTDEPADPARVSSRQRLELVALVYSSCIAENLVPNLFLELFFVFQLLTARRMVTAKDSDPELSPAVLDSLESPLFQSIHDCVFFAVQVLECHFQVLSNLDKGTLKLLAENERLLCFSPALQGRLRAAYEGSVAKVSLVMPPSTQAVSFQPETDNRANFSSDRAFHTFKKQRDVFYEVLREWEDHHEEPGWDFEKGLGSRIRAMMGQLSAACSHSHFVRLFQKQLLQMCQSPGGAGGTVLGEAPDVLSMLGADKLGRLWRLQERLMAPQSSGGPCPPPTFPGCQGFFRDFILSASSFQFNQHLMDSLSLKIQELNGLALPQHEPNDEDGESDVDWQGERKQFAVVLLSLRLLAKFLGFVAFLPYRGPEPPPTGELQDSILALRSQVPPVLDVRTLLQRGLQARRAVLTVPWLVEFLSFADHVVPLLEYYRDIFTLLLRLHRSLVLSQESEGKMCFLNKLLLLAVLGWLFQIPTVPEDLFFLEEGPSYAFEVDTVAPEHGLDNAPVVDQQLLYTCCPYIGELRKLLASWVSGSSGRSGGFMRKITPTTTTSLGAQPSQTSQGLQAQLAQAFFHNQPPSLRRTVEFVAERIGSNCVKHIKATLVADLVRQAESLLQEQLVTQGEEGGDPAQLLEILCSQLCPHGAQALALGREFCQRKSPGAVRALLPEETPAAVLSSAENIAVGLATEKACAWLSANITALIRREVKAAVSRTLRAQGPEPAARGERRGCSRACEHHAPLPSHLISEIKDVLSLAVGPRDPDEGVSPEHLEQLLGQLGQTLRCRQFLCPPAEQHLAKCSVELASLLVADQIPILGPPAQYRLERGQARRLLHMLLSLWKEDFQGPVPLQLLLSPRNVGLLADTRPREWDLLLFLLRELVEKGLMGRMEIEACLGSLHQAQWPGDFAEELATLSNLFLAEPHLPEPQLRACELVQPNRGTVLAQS
UniProt Q04900: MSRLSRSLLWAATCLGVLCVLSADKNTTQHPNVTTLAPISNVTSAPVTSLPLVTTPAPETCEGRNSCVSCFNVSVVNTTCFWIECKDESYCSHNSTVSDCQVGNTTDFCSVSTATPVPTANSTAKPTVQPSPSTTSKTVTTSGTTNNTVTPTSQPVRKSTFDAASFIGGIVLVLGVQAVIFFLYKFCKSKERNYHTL
UniProt Q15834: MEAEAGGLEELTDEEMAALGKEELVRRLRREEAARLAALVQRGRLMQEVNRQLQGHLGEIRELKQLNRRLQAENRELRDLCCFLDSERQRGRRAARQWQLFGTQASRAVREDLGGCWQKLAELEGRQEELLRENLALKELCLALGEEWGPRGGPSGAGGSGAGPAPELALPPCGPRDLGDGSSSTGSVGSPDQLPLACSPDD
UniProt Q6PK04: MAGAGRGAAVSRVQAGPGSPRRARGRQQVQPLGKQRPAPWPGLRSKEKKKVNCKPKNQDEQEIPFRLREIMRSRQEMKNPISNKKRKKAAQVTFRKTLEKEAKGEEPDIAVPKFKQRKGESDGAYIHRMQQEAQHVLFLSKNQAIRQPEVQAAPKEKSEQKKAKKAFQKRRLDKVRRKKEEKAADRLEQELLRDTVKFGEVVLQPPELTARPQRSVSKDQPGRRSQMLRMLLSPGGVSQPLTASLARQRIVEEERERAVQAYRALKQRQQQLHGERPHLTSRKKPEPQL
UniProt P20138, whole entry, looked up: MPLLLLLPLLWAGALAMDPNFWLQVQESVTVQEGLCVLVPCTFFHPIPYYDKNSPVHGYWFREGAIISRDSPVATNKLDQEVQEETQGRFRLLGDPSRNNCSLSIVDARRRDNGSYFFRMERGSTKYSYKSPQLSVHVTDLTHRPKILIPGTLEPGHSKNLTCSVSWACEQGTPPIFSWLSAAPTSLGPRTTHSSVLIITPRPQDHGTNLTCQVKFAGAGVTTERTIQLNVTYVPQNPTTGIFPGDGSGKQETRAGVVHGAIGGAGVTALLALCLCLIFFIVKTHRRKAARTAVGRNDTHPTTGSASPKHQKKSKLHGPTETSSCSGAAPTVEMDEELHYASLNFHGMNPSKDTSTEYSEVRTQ
UniProt Q75N03: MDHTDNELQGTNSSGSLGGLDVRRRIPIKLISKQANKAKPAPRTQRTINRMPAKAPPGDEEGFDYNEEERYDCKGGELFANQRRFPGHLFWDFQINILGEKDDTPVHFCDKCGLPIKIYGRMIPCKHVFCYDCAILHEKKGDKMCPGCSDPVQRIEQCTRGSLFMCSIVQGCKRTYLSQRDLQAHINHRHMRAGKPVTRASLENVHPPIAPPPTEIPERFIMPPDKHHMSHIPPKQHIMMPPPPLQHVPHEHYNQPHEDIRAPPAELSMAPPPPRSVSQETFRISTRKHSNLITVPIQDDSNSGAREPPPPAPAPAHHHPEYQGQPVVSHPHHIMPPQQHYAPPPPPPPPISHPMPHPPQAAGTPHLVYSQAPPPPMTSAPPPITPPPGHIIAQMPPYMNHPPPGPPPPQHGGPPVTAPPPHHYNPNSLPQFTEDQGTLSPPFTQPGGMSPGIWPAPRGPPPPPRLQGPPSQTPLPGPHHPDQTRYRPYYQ
UniProt O60583: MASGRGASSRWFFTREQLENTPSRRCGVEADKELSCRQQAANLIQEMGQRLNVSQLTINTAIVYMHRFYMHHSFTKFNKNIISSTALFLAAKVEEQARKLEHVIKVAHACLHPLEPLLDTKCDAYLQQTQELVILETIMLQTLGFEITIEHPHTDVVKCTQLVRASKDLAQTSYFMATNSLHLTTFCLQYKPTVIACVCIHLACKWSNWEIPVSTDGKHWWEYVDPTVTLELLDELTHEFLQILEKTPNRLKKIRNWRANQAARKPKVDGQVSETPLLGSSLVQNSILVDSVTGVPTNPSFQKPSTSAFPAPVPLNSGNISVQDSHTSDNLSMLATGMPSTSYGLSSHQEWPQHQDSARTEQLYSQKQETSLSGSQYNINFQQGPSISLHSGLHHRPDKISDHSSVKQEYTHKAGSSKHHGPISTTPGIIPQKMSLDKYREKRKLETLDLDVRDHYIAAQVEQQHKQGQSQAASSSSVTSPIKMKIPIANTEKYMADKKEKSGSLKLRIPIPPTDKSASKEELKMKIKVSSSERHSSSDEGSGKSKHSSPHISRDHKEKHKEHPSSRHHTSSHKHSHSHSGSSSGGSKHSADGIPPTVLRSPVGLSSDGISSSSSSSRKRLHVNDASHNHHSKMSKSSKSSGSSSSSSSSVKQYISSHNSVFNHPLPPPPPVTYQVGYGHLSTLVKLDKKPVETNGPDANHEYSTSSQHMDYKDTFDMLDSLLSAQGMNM
UniProt P35520: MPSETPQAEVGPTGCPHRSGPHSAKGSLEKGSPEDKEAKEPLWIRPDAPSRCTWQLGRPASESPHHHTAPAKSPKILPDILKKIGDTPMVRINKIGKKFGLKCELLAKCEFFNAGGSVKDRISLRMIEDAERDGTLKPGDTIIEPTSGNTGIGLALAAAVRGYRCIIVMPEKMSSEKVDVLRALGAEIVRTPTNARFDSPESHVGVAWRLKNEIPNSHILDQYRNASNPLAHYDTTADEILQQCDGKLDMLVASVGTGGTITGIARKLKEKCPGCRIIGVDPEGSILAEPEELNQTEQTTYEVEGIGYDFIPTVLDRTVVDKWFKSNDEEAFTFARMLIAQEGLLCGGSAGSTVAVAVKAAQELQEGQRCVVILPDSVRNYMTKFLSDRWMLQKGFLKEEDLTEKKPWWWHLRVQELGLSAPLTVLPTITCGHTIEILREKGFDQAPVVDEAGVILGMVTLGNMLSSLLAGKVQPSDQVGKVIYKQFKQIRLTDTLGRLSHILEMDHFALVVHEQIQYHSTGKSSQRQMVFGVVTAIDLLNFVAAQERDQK
UniProt P30305: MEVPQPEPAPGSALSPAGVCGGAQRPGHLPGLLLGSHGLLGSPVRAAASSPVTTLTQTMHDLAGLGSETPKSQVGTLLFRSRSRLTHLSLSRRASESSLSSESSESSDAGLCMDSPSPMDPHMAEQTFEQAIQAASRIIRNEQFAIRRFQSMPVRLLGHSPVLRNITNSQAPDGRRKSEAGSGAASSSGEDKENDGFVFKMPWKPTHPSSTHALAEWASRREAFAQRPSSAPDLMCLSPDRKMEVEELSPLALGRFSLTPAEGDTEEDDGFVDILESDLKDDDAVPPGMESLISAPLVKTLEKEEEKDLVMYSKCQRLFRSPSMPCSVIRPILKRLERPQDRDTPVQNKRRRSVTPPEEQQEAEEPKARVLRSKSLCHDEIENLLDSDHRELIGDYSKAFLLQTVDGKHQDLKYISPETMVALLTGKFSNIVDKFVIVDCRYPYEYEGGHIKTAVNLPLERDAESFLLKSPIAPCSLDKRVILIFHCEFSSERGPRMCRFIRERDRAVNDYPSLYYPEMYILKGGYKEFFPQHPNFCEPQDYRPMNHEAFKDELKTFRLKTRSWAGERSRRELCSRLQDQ
UniProt P86791: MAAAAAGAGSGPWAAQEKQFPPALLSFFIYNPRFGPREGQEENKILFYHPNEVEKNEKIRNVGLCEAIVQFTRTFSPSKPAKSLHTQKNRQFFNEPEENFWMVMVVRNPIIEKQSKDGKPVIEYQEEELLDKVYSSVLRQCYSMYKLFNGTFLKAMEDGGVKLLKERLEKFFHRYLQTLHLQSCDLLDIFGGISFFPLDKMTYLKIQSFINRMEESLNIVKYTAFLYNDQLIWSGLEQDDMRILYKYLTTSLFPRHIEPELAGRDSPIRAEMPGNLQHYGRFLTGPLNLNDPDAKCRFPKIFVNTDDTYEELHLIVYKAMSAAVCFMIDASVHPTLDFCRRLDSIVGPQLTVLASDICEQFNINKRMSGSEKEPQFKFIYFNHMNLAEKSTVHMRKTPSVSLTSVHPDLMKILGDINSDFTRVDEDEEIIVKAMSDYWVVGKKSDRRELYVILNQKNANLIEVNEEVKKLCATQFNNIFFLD

Experiments:
Assay in all cases: log2 fold change, soluble protein after heating vs DMSO (PISA); higher = thermal stabilisation; K562 cells, 10 uM, 30 min; active = over 0.2 and 3.5 SD of the protein, either way, in both replicates (recomputed)
[1] = compound: CC[C@@H]1C(=O)N(C)c2cnc(Nc3ccc(C(=O)NC4CCN(C)CC4)cc3OC)nc2N1C1CCCC1
Outline: (§1)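 Quantification of soluble protein used TMTpro 16plex LC-MS/MS, with channel sums equalised. Samples were the supernatant after 21,000xg for 90 min of pooled aliquots from K562 cells (2×10^6 cells/mL) treated with 10 μM compound for 30 min, heated for 3 min over 48°C-58°C, and extracted in PBS with 0.5% NP-40 at 4°C. Values, from duplicates, describe thermal stability against control samples on a log2 fold-change scale.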

volasertib = compound: CC[C@@H]1C(=O)N(C)c2cnc(Nc3ccc(C(=O)N[C@H]4CC[C@H](N5CCN(CC6CC6)CC5)CC4)cc3OC)nc2N1C(C)C [volasertib]
Outline: as §1

[2] = compound: CC[C@H](C)N1C=C(C2=C(C=C(C=C21)C3=CN=C(C=C3)N4CCNCC4)C(=O)NCC5=C(C=C(NC5=O)C)C)C
Outline: as §1

epoxomicin = compound: CC[C@H](C)[C@@H](C(=O)N[C@@H]([C@@H](C)O)C(=O)N[C@@H](CC(C)C)C(=O)[C@]1(CO1)C)NC(=O)[C@H]([C@@H](C)CC)N(C)C(=O)C [epoxomicin]
Outline: as §1

[3] = compound: CN(C)CC(=O)Nc1ccc2[nH]c(=O)c3ccccc3c2c1
Outline: as §1

[4] = compound: CN1C2=C(C3=C1C(=O)N(N=C3)CC4=CC(=CC=C4)N)SC(=C2)S(=O)C
Outline: as §1

[5] = compound: CCn1cc(-c2ccnc3[nH]c(-c4cccc(CN(C)C)c4)cc23)c(-c2ccc(NC(=O)N(C)C)cc2)n1
Outline: as §1

[6] = compound: CN1CCC(CNc2ccc3ncc(-c4cccc(OC(F)(F)F)c4)n3n2)CC1
Outline: as §1

[7] = compound: CCn1c(C(=O)N(C2CC2)C2CC2)cc2c3c(ncn3C)c(Nc3cc(C)n(C)n3)nc21
Outline: as §1

rosiglitazone = compound: CN(CCOC1=CC=C(C=C1)C[C@H]2C(=O)NC(=O)S2)C3=CC=CC=N3 (racemic) [rosiglitazone]
Outline: as §1

Target	log2 fold change [1]	log2 fold change (volasertib)	log2 fold change [2]	log2 fold change (epoxomicin)	log2 fold change [3]	log2 fold change [4]	log2 fold change [5]	log2 fold change [6]	log2 fold change [7]	log2 fold change (rosiglitazone)
CCDC82 (UniProt Q8N4S0)	inactive: -0.062	active: -0.349	inactive: -0.018	inactive: 0.143	inactive: 0.001	inactive: -0.069	–	–	–	–
CDC26 (UniProt Q8NHZ8)	inactive: 0.06	inactive: 0.037	inactive: -0.068	inactive: -0.031	inactive: 0.158	inactive: 0.107	inactive: 0.003	inactive: 0.131	–	–
CCNT1 (UniProt O60563)	inactive: 0.023	inactive: -0.085	inactive: 0.069	inactive: -0.063	inactive: -0.055	inactive: 0.132	inactive: 0.035	inactive: -0.036	–	–
CBX1 (UniProt P83916)	inactive: 0.001	inactive: -0.119	inactive: 0.103	inactive: -0.022	inactive: -0.013	inactive: 0.028	inactive: -0.037	inactive: -0.014	–	–
CCDC175 (UniProt P0C221)	inactive: -0.068	inactive: -0.166	inactive: 0.007	–	inactive: -0.03	inactive: 0.018	inactive: 0.009	inactive: -0.113	inactive: 0.02	inactive: 0.199
CCAR1 (UniProt Q8IX12)	inactive: 0.079	inactive: 0.149	inactive: 0.063	inactive: 0.008	inactive: 0.018	inactive: -0.039	inactive: -0.219	active: -0.319	–	–
CASC3 (UniProt O15234)	inactive: 0.303	inactive: 0.272	inactive: -0.068	inactive: -0.058	inactive: -0.081	inactive: 0.102	inactive: 0.087	inactive: 0.02	–	–
CASP2 (UniProt P42575)	inactive: 0.058	inactive: 0.112	inactive: 0.078	inactive: 0.024	inactive: 0.031	inactive: 0.008	inactive: -0.153	inactive: -0.08	–	–
CD80 (UniProt P33681)	inactive: 0.04	inactive: 0.064	inactive: -0.055	–	–	inactive: -0.081	inactive: 0.137	inactive: 0.294	inactive: -0.194	–
CDAN1 (UniProt Q8IWY9)	inactive: -0.079	inactive: -0.15	inactive: -0.041	inactive: 0.014	inactive: -0.058	inactive: -0.022	inactive: -0.047	inactive: -0.001	–	–
CD164 (UniProt Q04900)	inactive: -0.051	–	inactive: 0.165	inactive: 0.037	inactive: 0.182	–	inactive: -0.028	inactive: -0.161	inactive: -0.188	inactive: 0.005
CD151 (UniProt P48509)	active: 0.277	inactive: 0.157	inactive: -0.068	inactive: 0.041	inactive: 0	inactive: -0.095	inactive: -0.058	inactive: 0.248	–	–
CCM2 isoform 2 (UniProt Q9BSQ5)	inactive: -0.207	active: -0.412	–	inactive: 0.102	inactive: -0.01	inactive: -0.012	inactive: -0.017	inactive: -0.233	–	–
CD53 (UniProt P19397)	inactive: 0.183	inactive: -0.103	inactive: -0.049	inactive: -0.02	inactive: -0.007	inactive: -0.051	inactive: -0.092	inactive: -0.06	–	–
CCNK isoform 4 (UniProt O75909)	inactive: 0.099	inactive: 0.045	inactive: -0.018	inactive: -0.254	inactive: -0.051	inactive: 0.105	inactive: 0.129	inactive: 0.032	–	–
CDC37L1 (UniProt Q7L3B6)	inactive: -0.14	inactive: -0.199	inactive: 0.059	inactive: 0.029	inactive: -0.054	inactive: 0.001	inactive: 0.091	inactive: -0.048	–	–
CCDC85B (UniProt Q15834)	inactive: 0.175	inactive: 0.119	–	–	inactive: -0.012	inactive: 0.132	inactive: 0.09	inactive: -0.05	inactive: 0.172	inactive: -0.139
CCDC137 (UniProt Q6PK04)	inactive: 0.27	–	inactive: -0.007	inactive: -0.008	inactive: -0.172	inactive: 0.297	inactive: 0.116	inactive: 0.365	inactive: -0.036	inactive: -0.325
CD33 (UniProt P20138)	inactive: -0.063	inactive: 0.088	–	inactive: -0.118	inactive: -0.023	inactive: 0.024	inactive: -0.009	inactive: 0.118	inactive: -0.034	–
CCNB1 (UniProt P14635)	inactive: 0.023	inactive: 0.026	inactive: -0.027	inactive: 0.083	inactive: 0.012	inactive: -0.043	inactive: -0.004	inactive: -0.032	–	–
CBLL1 (UniProt Q75N03)	inactive: 0.122	inactive: -0.154	inactive: 0.218	–	inactive: -0.097	inactive: -0.025	–	–	inactive: -0.023	–
CCDC9 (UniProt Q9Y3X0)	inactive: 0.081	inactive: 0.127	inactive: -0.051	inactive: -0.018	inactive: 0.002	inactive: 0.025	inactive: 0.051	inactive: 0.009	–	–
CCDC102A (UniProt Q96A19)	inactive: 0.262	inactive: 0.183	–	inactive: 0.054	inactive: 0.058	–	inactive: -0.03	inactive: 0.041	inactive: -0.318	–
CD55 isoform 7 (UniProt P08174)	inactive: 0.172	inactive: 0.096	inactive: -0.031	inactive: 0.086	inactive: -0.042	inactive: -0.005	inactive: -0.006	active: 0.228	–	–
CCNT2 (UniProt O60583)	inactive: 0.035	inactive: -0.096	inactive: 0.056	inactive: 0.004	–	inactive: 0.023	inactive: -0.084	inactive: -0.101	–	–
CDC37 (UniProt K7EL68)	inactive: 0.013	inactive: -0.14	inactive: 0.039	inactive: 0.032	inactive: -0.027	inactive: -0.068	–	–	–	inactive: 0.121
CBS (UniProt P35520)	inactive: 0.007	inactive: 0.036	inactive: -0.049	inactive: 0.035	inactive: -0.012	inactive: -0.073	inactive: 0.02	inactive: -0.03	–	–
CDC25B isoform 4 (UniProt P30305)	inactive: -0.003	inactive: -0.049	inactive: -0.266	inactive: 0.1	inactive: -0.021	–	inactive: -0.092	inactive: -0.081	–	–
CCZ1 (UniProt P86791)	inactive: -0.199	inactive: -0.113	inactive: -0.005	inactive: 0.013	inactive: -0.002	inactive: -0.002	inactive: 0.028	active: -0.256	–	–
CBR1 (UniProt P16152)	inactive: -0.001	inactive: -0.041	inactive: -0.017	inactive: 0.06	inactive: 0.005	inactive: -0.077	inactive: 0	inactive: 0.077	–	–

Some values from the entries so far.
Entry for CD55 isoform 7 (UniProt P08174) under log2 fold change [6]: active: 0.228
Entry for CCNT2 (UniProt O60583) under log2 fold change [6]: inactive: -0.101
